Earlier results as cited in patent publication US7915229B2 (Wyeth Holdings Corporation, priority 2004, dated 2011).
Read-outs that look alike come from different tables or passages of the source. Some entries share one result that the patent states for a list of compounds.

In the case of `C[C@]1(Cn2ccnn2)[C@H](C(=O)[O-])N2C(=O)C[C@H]2S1(=O)=O.[Na+]` [tazobactam, sodium (2S,3S,5R)-3-methyl-7-oxo-3-(1H-1,2,3-triazol-1-ylmethyl)-4-thia-1-azabicyclo-(3,2,0)heptane-2-carboxylate-4,4-dioxide], the “time stable in 2 CAPD solutions” value (stored at 4° C.) is listed as no less than 14 days, the “time stable in 2 CAPD solutions” value (stored at 23° C.) is listed as no less than 7 days and the “time stable in 2 CAPD solutions” value (stored at 37° C.) is listed as “at least 1 day”.
